# For at least one compound, name, drawing or mass did not settle the structure.
# By UniProt entry, the sequences of proteins in these tests, tags left out. Where a name states a change or a piece, a line headed by the entry shows the natural chain unless it says otherwise.
# UniProt Q00266: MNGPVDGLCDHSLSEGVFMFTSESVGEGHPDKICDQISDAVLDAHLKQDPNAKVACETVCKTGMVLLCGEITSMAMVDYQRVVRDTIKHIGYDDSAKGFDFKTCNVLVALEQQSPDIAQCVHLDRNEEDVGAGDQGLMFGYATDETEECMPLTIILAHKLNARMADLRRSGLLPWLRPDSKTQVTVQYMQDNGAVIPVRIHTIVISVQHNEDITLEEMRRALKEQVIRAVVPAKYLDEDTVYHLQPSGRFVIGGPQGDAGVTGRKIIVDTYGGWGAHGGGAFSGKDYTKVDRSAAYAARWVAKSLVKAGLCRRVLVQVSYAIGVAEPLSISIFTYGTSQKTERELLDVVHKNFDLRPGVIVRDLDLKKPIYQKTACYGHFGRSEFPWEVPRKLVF
# Biological target: human MAT I catalytic subunit alpha (hMAT1A) (Homo sapiens, UniProt Q00266)
# Assay: MAT assay, turnover of S/Se-Met analogs to S(Se)AM analogs (RP-HPLC end point)
# Format: biochemical
# Conditions: 2 mM Met analog, 1 mM ATP, 5 μM MAT, pH 8, 4 h, 37° C.; average of two assays
# Method: Standard uniform assay conditions (2 mM Met analog, 1 mM ATP, 5 μM MAT, 25 mM Tris, 5 mM MgCl2, 50 mM KCl, pH 8, 4 h) were adopted to facilitate this broad assessment. For the thermophilic counterpart (mMAT), reactions were conducted at 65° C., while all other reactions were incubated at 37° C. Production of SAM analogs was determined by an RP-HPLC end point assay to afford complete analysis of the desired SAM analog and/or any corresponding degradation products known to directly derive from the desired SAM analog intermediate. […]
# The sMAT and mMAT reactions were conducted at 65° C. while hMATs and eMAT were incubated at 37° C. Reactions were quenched by adding an equal volume of methanol followed by centrifugation (10,000×g for 15 min) to remove the precipitated protein and product formation for each reaction was subsequently analyzed by RP-HPLC using Method D (FIG. 15, first column). For each reaction, percent yield was based upon the integration of species at 254 nm and calculated by dividing the integrated area of product and/or decomposed product by the sum of integrated area of product and/or decomposed product and the remaining substrate. […]
structure (smiles),measurement,value
"[N-]=[N+]=NC/C=C/C[Se]CC[C@H](N)C(=O)O [compound 23-Se, (2S)-2-amino-4-{[(2E)-4-azidobut-2-en-1-yl]selanyl}butanoic acid]",Percentage Turn-over hMAT1A,4%
